Laboratory results from patent US20240336565A1, “SOLID FORMS OF OSANETANT” (Acer Therapeutics, Inc., priority 2021, published 2024).
Some of these results come from one statement about several compounds together.

Assay: Long term stability: acid stability (2M HCl) at 60° C.
Type: physicochemical
Conditions: after day 4
Method: Osanetant p-toluenesulfonic acid Form 1 and osanetant benzenesulfonic acid Form 1 were tested for long-term stability across a number of different conditions, as detailed below.
Acid Stability at 60° C.—Osanetant p-toluenesulfonic acid Form 1 and osanetant benzenesulfonic acid Form 1 were prepared at an osanetant content 10 times the normal working concentration then added to HPLC vials containing 2M HCl and stored in a darkened oven at 60° C. Samples were diluted to 2 mg/mL for analysis and were taken after T=1, 2, and 4 days storage.

In the case of `CC(=O)N(C)C1(c2ccccc2)CCN(CCC[C@]2(c3ccc(Cl)c(Cl)c3)CCCN(C(=O)c3ccccc3)C2)CC1.Cc1ccc(S(=O)(=O)O)cc1` [osanetant p-toluenesulfonic acid Form 1, (R)-N-(1-(3-(1-benzoyl-3-(3,4-dichlorophenyl)piperidin-3-yl)propyl)-4-phenylpiperidin-4-yl)-N-methylacetamide p-toluenesulfonic acid], the purity is reported as “below 90%”.

For `CC(=O)N(C)C1(c2ccccc2)CCN(CCC[C@]2(c3ccc(Cl)c(Cl)c3)CCCN(C(=O)c3ccccc3)C2)CC1.O=S(=O)(O)c1ccccc1` [osanetant benzenesulfonic acid Form 1, (R)-N-(1-(3-(1-benzoyl-3-(3,4-dichlorophenyl)piperidin-3-yl)propyl)-4-phenylpiperidin-4-yl)-N-methylacetamide benzenesulfonic acid], the purity was “below 90%”.
